Here are results for one compound from patent US11419868B2, “Low dose product and method for treating diarrhea” (MAREGADE RX, LLC, priority 2016, dated 2022).

In the assay the test system is acetic acid-induced colonic hypersensitivity. The note with it: famotidine 0.6 mg/kg, cetirizine 0.25 mg/kg, each alone, oral twice daily 3.5 days; FIG. 7.

Take `O=C(O)COCCN1CCN(C(c2ccccc2)c2ccc(Cl)cc2)CC1` (stereo not shown) [cetirizine]: the “inhibition of acetic acid-induced colonic hypersensitivity” value is recorded as “not either drug alone, induced a significant inhibition”.
